Test [1] deals with T1, TOPORS (endogenous) (human (endogenous in cells that are not named; all cell lines of the paper are human)) (UniProt Q9NS56).
T1 sequence: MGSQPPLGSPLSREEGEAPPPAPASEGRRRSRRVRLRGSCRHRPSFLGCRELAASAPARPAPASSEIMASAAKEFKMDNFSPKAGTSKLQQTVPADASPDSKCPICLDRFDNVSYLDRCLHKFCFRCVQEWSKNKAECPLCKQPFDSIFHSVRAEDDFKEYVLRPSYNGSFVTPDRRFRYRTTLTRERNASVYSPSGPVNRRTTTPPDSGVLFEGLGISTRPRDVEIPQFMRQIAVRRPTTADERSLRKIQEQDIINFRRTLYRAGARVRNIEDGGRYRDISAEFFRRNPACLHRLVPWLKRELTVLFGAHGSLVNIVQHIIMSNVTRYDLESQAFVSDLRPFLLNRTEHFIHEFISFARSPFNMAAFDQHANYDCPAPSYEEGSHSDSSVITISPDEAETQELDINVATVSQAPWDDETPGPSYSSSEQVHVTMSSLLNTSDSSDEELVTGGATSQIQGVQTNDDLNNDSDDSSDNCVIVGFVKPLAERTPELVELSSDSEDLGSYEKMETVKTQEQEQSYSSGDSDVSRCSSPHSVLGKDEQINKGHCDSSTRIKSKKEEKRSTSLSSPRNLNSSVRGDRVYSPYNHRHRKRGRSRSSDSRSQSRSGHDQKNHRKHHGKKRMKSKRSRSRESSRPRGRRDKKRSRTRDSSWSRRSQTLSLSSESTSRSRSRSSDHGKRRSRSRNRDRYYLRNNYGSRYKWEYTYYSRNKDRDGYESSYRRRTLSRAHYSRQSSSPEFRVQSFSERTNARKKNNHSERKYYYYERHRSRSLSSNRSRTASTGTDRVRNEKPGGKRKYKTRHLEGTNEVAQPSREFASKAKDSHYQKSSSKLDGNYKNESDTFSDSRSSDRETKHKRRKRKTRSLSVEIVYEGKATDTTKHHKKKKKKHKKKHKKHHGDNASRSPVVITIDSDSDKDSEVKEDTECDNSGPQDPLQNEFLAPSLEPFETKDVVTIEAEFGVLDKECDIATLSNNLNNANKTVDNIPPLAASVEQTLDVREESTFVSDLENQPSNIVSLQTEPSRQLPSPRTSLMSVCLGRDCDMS
The test is described as follows: co-IP; endogenous IP of TOPORS, blotted for the endogenous partners (Supplementary Fig. 5C); cells not named.

Chains of the proteins cited; added tags and fusions are not shown.
UniProt Q93009: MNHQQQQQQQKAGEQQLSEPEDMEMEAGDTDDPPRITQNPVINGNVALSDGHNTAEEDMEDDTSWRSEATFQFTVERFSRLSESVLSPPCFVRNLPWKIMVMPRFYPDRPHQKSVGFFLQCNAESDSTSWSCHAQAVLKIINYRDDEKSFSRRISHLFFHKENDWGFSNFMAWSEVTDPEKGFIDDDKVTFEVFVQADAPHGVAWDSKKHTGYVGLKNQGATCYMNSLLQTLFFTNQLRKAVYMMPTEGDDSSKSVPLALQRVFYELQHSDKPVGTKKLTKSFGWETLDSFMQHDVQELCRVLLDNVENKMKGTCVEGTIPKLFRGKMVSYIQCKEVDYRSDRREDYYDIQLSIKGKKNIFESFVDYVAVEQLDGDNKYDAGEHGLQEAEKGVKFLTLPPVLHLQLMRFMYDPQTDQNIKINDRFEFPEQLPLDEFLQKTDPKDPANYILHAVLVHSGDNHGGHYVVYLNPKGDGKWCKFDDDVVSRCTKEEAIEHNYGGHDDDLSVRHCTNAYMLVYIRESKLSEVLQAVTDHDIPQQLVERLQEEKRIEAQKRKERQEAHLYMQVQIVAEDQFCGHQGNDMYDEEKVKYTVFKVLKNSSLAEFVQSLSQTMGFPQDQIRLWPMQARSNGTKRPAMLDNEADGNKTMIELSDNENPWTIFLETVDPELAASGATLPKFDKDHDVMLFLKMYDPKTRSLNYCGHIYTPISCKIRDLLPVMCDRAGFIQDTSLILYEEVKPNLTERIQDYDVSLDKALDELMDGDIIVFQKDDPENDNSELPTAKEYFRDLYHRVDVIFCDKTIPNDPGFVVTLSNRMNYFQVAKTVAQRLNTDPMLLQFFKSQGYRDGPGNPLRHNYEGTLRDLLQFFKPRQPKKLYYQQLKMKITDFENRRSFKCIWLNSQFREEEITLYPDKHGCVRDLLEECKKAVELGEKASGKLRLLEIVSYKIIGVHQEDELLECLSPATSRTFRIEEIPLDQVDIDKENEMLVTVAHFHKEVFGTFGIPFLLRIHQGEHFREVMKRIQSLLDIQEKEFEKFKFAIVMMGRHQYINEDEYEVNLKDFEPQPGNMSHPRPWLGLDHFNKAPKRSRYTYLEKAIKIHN
UniProt Q9NXR7: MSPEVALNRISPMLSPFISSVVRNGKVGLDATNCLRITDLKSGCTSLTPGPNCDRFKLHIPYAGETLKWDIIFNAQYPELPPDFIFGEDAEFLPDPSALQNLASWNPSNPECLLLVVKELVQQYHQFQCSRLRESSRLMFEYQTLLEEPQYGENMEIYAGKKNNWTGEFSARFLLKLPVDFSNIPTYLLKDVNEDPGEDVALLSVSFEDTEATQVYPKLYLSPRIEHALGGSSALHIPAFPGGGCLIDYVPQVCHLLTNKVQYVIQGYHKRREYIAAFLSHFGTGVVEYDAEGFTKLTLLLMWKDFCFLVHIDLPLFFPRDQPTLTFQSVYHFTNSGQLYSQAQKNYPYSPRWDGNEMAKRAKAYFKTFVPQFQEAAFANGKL
UniProt P46736: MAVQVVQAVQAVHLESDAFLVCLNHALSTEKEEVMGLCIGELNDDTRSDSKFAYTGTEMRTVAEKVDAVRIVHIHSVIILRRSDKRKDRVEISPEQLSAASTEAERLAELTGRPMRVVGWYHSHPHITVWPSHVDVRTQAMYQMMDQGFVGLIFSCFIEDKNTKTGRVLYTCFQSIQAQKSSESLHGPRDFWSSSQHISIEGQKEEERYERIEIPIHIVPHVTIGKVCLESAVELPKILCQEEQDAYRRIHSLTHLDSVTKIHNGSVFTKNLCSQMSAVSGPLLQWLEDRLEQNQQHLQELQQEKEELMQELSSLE
UniProt Q9NWV8: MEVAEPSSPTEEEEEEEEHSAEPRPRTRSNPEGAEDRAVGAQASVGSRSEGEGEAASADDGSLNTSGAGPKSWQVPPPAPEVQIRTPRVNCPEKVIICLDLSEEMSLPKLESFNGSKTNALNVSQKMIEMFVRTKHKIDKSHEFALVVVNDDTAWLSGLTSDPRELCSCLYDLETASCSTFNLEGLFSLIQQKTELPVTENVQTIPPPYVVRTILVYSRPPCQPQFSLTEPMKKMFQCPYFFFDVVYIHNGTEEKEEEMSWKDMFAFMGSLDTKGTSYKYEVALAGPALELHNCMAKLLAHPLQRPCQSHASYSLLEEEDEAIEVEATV

Test [2] has as its target T2, FLAG-TOPORS (UniProt Q9NS56).
T2 sequence: T1 sequence
Nature of the test: co-IP; HEK293T transfected with FLAG-TOPORS or empty vector for 24 h; FLAG immunoprecipitated; eluates analysed by Western blot for endogenous proteins. (Immunoblotting shows a protein as a band on a membrane.)

Test [3] concerns the target T2, FLAG-TOPORS. Nature of the test: co-IP; HEK293T transfected with Flag-TOPORS, Myc-USP7 or both (48 h); NETN lysis buffer; Flag or Myc beads, 1 h at 4 °C; Western blot.
A further test addresses Myc-USP7 (UniProt Q93009). The description is as above.

Results are given in words; binding and its absence hold for the method and conditions named. In cells and extracts the contact can be indirect. Some results given as binding are weak or reduced against the parent protein; the word gives no strength. For some of these results: Tags and fused reporters may be left off the sequences shown.

Consider “USP7 (endogenous) (from UniProt Q93009 1-1102) (enzyme)”, for which, in test [1], the binding entry is “binds”.
In the case of BRE/BRCC45 (from UniProt Q9NXR7 1-383), the binding entry with FLAG-TOPORS [2] was “binds”.
Same read-out and setting: next, “BRCC3/BRCC36 (from UniProt P46736 1-316) (enzyme)”: “binds”; “BABAM1/NBA1/MERIT40 (from UniProt Q9NWV8 1-329)”: “binds”.
Take “Myc-USP7 (from UniProt Q93009 1-1102) (enzyme)”: the binding entry with FLAG-TOPORS [3] is given as “binds”.

B1: RAP80 (protein, UniProt Q96RL1 1-719)
chain: MPRRKKKVKEVSESRNLEKKDVETTSSVSVKRKRRLEDAFIVISDSDGEEPKEENGLQKTKTKQSNRAKCLAKRKIAQMTEEEQFALALKMSEQEAREVNSQEEEEEELLRKAIAESLNSCRPSDASATRSRPLATGPSSQSHQEKTTDSGLTEGIWQLVPPSLFKGSHISQGNEAEEREEPWDHTEKTEEEPVSGSSGSWDQSSQPVFENVNVKSFDRCTGHSAEHTQCGKPQESTGRGSAFLKAVQGSGDTSRHCLPTLADAKGLQDTGGTVNYFWGIPFCPDGVDPNQYTKVILCQLEVYQKSLKMAQRQLLNKKGFGEPVLPRPPSLIQNECGQGEQASEKNECISEDMGDEDKEERQESRASDWHSKTKDFQESSIKSLKEKLLLEEEPTTSHGQSSQGIVEETSEEGNSVPASQSVAALTSKRSLVLMPESSAEEITVCPETQLSSSETFDLEREVSPGSRDILDGVRIIMADKEVGNKEDAEKEVAISTFSSSNQVSCPLCDQCFPPTKIERHAMYCNGLMEEDTVLTRRQKEAKTKSDSGTAAQTSLDIDKNEKCYLCKSLVPFREYQCHVDSCLQLAKADQGDGPEGSGRACSTVEGKWQQRLKNPKEKGHSEGRLLSFLEQSEHKTSDADIKSSETGAFRVPSPGMEEAGCSREMQSSFTRRDLNESPVKSFVSISEATDCLVDFKKQVTVQPGSRTRTKAGRGRRRKF
Take B1: the binding result in the test with FLAG-TOPORS [2] is “binds”.

B2: FLAG-TOPORS (enzyme, UniProt Q9NS56 1-1045)
chain: T1 sequence
On to B2, for which the binding entry with Myc-USP7 is on record as “binds”.

Values taken from paper PMC13473141.
